In all, about 33,000 sequences were measured (“E-score (-0.5 to 0.5)”: median about -0.015, highest 2% from about 0.3 on). This is one part of the list.
biological target: T1, Abf1 (UniProt P14164); test: PBM E-score (8-mer binding enrichment) (E-score (-0.5 to 0.5)); higher = stronger / more preferred TF binding; details: protein concentration: 200 nM; construct: GST-full length
T1 sequence: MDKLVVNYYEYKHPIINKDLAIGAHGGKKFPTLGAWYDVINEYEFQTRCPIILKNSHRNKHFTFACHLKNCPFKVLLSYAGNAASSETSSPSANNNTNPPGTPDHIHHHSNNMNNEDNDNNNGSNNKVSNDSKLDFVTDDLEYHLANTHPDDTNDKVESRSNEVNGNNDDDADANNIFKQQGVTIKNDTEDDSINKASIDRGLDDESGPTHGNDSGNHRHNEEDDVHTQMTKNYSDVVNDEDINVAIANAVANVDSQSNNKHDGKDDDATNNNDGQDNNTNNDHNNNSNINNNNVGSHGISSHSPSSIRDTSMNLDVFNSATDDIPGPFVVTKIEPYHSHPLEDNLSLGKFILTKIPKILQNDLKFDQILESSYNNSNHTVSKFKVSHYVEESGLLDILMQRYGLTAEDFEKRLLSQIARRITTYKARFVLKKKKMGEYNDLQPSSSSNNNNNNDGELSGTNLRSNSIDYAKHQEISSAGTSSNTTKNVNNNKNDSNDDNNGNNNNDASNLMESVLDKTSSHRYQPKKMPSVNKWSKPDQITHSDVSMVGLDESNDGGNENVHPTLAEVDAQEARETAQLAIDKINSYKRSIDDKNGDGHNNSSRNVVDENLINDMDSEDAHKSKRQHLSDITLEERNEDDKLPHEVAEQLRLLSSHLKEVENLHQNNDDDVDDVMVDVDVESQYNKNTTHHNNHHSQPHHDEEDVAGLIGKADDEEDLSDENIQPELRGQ
How it was run: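 Bound GST-tagged yeast transcription factors, applied at about 100-200 nM to double-stranded universal all-10-mer Agilent arrays, were detected with fluorescent anti-GST. Scans were normalised with masliner. A modified Wilcoxon-Mann-Whitney statistic, the E-score, was assigned to each ungapped eight-base word pooled with its reverse complement by the Universal PBM Analysis Suite.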

Row | Sequence | PBM E-score
1 | CGACCTCC | 0.0447
2 | ACTTGAAT | 0.0842
3 | ACCAGCCG | -0.109
4 | ATAGTTGC | 0.0289
5 | CAGGTGGC | -0.126
6 | AATCATTA | 0.251
7 | CCTCAGTA | -0.167
8 | GAGGATAC | 0.104
9 | CCAGTTCA | -0.0506
10 | CCATGGTC | -0.27
11 | ACCCCCTC | -0.296
12 | GACAACTC | -0.0011
13 | ATGGCGAA | 0.0789
14 | ATGCAGAG | -0.094
15 | GGCTGAGA | -0.0634
16 | CGTCCTCA | 0.0561
17 | AAAAACAA | 0.153
18 | ACCGTACC | 0.118
19 | GGGATCGA | -0.188
20 | ACGAATTC | 0.116
21 | CGCACCAA | -0.0891
22 | GTACCGAA | -0.0301

Two entries drawn at random from those above:
Row | Sequence | PBM E-score
1 | CGACCTCC | 0.0447
17 | AAAAACAA | 0.153

Additional results follow:

Row | Sequence | PBM E-score
23 | AGCTGGGG | -0.268
24 | CAGCCCCC | -0.329
25 | CTGGGAGA | -0.224
26 | GATCCCGA | -0.0793
27 | ATATGGAG | 0.131
28 | CCCCCGGC | -0.467
29 | CACGGCTG | 0.00248
30 | GTAAGGCA | -0.0597
31 | AGGTCCCG | -0.113
32 | GTCCATCA | 0.0377
33 | AGGGGGCC | -0.427
34 | CCACATTC | -0.169
35 | GCAGATCC | 0.0904
36 | AGGTGACT | 0.158
37 | CTTTCCGC | -0.0512
38 | TGACCTAA | 0.268
39 | CATTAGCA | 0.0204
40 | AAGTATGG | 0.067
41 | ATTAGTAC | 0.169
42 | ATGGGCGG | 0.0256
43 | AATAATTA | 0.2
44 | GATAGACA | 0.0719

Row | Sequence | PBM E-score
45 | CCAGTCGG | -0.229
46 | ATCCTGTG | -0.127
47 | GGTAGGTA | 0.00297
48 | GCGTCCGA | -0.0138
49 | AGCGTTTC | -0.303
50 | CCCAATAG | -0.119
51 | CTAAGATC | 0.226
52 | ACAGCCGA | -0.213
53 | AACGGAAT | 0.15
54 | AGCCTTTG | -0.259
55 | CGAGCACA | 0.127
56 | CGCGCTAA | 0.0689
57 | GAATGTAA | 0.0829
58 | AGATTAGG | 0.0252
59 | CGTGCGTA | 0.272
60 | GCCAACCA | -0.172
61 | AGCCGGAA | -0.0916
62 | AAACATTC | 0.00278
63 | GGCGGATA | 0.0201
64 | GCCCGGCC | -0.259
65 | ATTCCAAC | 0.0185
66 | AAGGTTAA | -0.068

Two neighbouring records from above, for reference:
Row | Sequence | PBM E-score
53 | AACGGAAT | 0.15
54 | AGCCTTTG | -0.259

Later entries

Row | Sequence | PBM E-score
67 | CGACGACC | 0.243
68 | CGCCTTCC | -0.336
69 | ACGTAGCA | 0.187
70 | CGGTAATA | 0.114
71 | GAATATAA | 0.06
72 | AGGAGGCC | -0.239
73 | CTCGGGTC | -0.0943
74 | GATACTAC | 0.101
75 | ATAGCTTC | 0.0125
76 | CCCAAAGC | -0.137
77 | AGTAACCC | -0.0694
78 | AAGCCATT | 0.101
79 | AACTATTG | 0.0538
80 | TTACGAAA | 0.279
81 | ACGACTCG | 0.144
82 | TCACGACA | 0.257
83 | AGTAGGCA | 0.00391
84 | AGTGACAA | 0.439
85 | CCTCTCCG | -0.315
86 | AGGAGTGC | -0.144
87 | GAAACCTC | -0.194
88 | AGATGAGG | -0.0744

In another format: entries from further up.
Row	Sequence	PBM E-score
67	CGACGACC	0.243
68	CGCCTTCC	-0.336
69	ACGTAGCA	0.187

The list goes on.

Row | Sequence | PBM E-score
89 | CCCTCAAC | -0.305
90 | CGATATCG | 0.372
91 | ACAGAAAC | -0.0883
92 | CAGGTAAC | 0.0232
93 | CGTATCTA | 0.0946
94 | AATGCCCT | -0.0718
95 | CCATGTAG | -0.127
96 | ATCTGACA | -0.114
97 | AGCTCTCG | -0.145
98 | TGATCGCA | -0.0164
99 | ACGGTCGG | 0.118
100 | CTAGAAAC | 0.0109
101 | GGTGCCGA | -0.0978
102 | AAGAAAGA | 0.1
103 | CATCCAAA | -0.102
104 | TAGGACCA | -0.0193
105 | CGTGCGAC | 0.243
106 | CTCAATGA | 0.0427
107 | CCCCGTAG | -0.021
108 | AGTGGCAG | -0.0869
109 | ATTATATG | 0.196
